Here are results for 1 molecule from patent US20160159929A1.

Sequences of proteins named here, by UniProt entry; tags and fusion partners are left off. A change or cut given only in a name is not applied to a line headed by its entry. A line that says so, or that is headed by a name, gives the form on record, which may keep a tag or linker.
human DLL4 (27-251)-Fc alanine substitution mutant at position 69 (valine) (Q9NR61, form named): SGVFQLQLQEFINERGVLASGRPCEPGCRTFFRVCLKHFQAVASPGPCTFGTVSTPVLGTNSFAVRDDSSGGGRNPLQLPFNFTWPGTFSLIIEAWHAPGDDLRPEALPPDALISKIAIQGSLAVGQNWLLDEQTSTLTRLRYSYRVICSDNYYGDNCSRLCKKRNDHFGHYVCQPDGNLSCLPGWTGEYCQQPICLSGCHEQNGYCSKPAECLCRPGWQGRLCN

No constants are given. Whether binding was seen depends on the method and setting. Some results given as binding are weak or reduced against the parent protein; the word gives no strength.

The assay deals with human DLL4 (27-251)-Fc alanine substitution mutant at position 69 (valine) (human) (UniProt Q9NR61). Kind of assay: Western blot of mutant DLL4 (27-251)-Fc with MLCK2 antibody (1 ug/mL), HRP anti-human Fab. On the technique in general: In western blotting, separated proteins are transferred to a membrane and probed.

B1: MLCK-2 anti-DLL4 antibody (antibody, V domains shown)
VH: EVQLLESGGGLVQPGGSLRLSCAASGFTFSDYAMSWVRQAPGKCLEWVSWIYSGSGNKYYADSVKGRFTISRDNSKNTLYLQMNSLRAEDTAVYYCARADWPFDYWGQGTLVTVSS
VL: QSVLTQPPSASGTPGQRVTISCTGSSSNIGSNDVTWYQQLPGTAPKLLIYADSKRPSGVPDRFSGSKSGTSASLAISGLRSEDEADYYCGTWDYSLSAYVFGCGTKLTVL
Take B1: the binding entry is recorded as “binds”.
